{
  "source": "PubChem BioAssay AID493014",
  "about": "(National Center for Advancing Translational Sciences (NCATS), 2011)",
  "note": "About 170 (0.05%) of roughly 340,000 compounds were called active. The shares of active, inactive and inconclusive entries below differ from those in the screen. Calls follow the shape of the dose curve; as a rule, active = well fitted inhibition curve with a large enough effect in the signal ratio, with a control signal flat (not every such curve was filed as active); inconclusive = small, poorly fitted or top-dose-only effect, or effect the other way, or a change in a side signal; inactive = flat fitted curve, though single readings scatter; the % refers to the signal ratio. Potencies beside an inconclusive call are fits to weak or partial responses and may not hold up. Potency is read from the fitted curve at half-maximal effect.",
  "data": [
    {"assay": "qHTS Assay to Find Inhibitors of Chronic Active B-Cell Receptor Signaling;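 as to activity change, negative = inhibition: plate controls were basal doxycycline-induced cells for no effect and cells given 10 µM MG132 for full effect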", "details": "ABC-DLBCL IkBa-CBG/CBR reporter, luminescence ratio (green luciferase fused to IkBa over red control in TMD8 lymphoma cells), 4 h; activity change, negative = inhibition: at 46.1 µM (top of the series) unless noted", "in_short": "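Concentration-response series (up to 46 uM) were applied to TMD8 dual-reporter cells for 4 h at 37C with doxycycline. Green/red ratio, after filter-overlap correction, defined %Activity; red signal alone was normalised to basal cells and zero luminescence.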", "values": [
      {"smiles": "COc1ccc(C(=O)O/N=C(\\N)c2ccccc2Cl)cc1OC", "Potency": "inconclusive: 17.8 µM [falling, single point]"},
      {"smiles": "O=C(NC(=S)Nc1cccc2ncccc12)c1cccs1", "activity change, negative = inhibition": "inactive"},
      {"smiles": "COc1ccc(CNC(=O)c2sc(=S)n(-c3ccccc3)c2N)cc1", "activity change, negative = inhibition": "inconclusive: -1.11%"},
      {"smiles": "CCCNC(=O)CC1Sc2ccccc2NC1=O", "note": "(stereo unspecified)", "activity change, negative = inhibition": "inconclusive: 1.09%"},
      {"smiles": "Cc1ccccc1OC(C)c1nc(-c2ccccc2)no1", "note": "(stereo unspecified)", "activity change, negative = inhibition": "inconclusive: 23.9%"},
      {"smiles": "NC(=O)c1nsc(C(=O)N(c2ccccc2)C(C(=O)NCC2CCCO2)c2cccs2)c1N", "note": "(stereo unspecified)", "activity change, negative = inhibition": "inactive"},
      {"smiles": "NC(=O)CSc1nnc(CSc2ncccn2)n1-c1ccccc1", "activity change, negative = inhibition": "inactive"},
      {"smiles": "Cc1ccc(C)c2[nH]c(=O)c(CCNC(=O)Cc3cccs3)cc12", "activity change, negative = inhibition": "inconclusive: 3%"},
      {"smiles": "CC(C)(NC(=O)NC(CO)c1ccccc1)c1cccc(C(C)(C)NC(=O)NC(CO)c2ccccc2)c1", "note": "(stereo unspecified)", "Potency": "inconclusive: 10.3 µM [rising, partial curve, poor fit]"},
      {"smiles": "Cc1ccc(S(=O)(=O)N2CCCCC2)cc1NC(=O)c1ccc(Br)o1", "activity change, negative = inhibition": "inconclusive: -0.965%"},
      {"smiles": "Cc1c(NC(=O)CSc2nc3ccc(Cl)cc3[nH]2)c(=O)n(-c2ccccc2)n1C", "Potency": "inconclusive: 32.6 µM [falling, single point]"},
      {"smiles": "COc1cccc(NC(=O)C2CCN(S(=O)(=O)c3ccccc3)CC2)c1", "activity change, negative = inhibition": "inactive"},
      {"smiles": "COc1ccc(S(=O)(=O)N2CCCC2)c(Cl)c1Cl", "activity change, negative = inhibition": "inconclusive: -22.6%"},
      {"smiles": "CCOC(=O)C1CCCN(Cc2ccccc2F)C1", "note": "(stereo unspecified)", "activity change, negative = inhibition": "inconclusive: 5.77%"},
      {"smiles": "CC1/C(=C\\c2ccc(Cl)cc2)C(=O)C2CC1C2(C)C", "note": "(stereo unspecified)", "Potency": "inconclusive: 7.08 µM [rising, partial curve, poor fit]"},
      {"smiles": "CCn1c(C)nc2cc(-c3nc4n(n3)Cc3ccccc3-4)ccc21", "activity change, negative = inhibition": "inconclusive: -28%"},
      {"smiles": "CSc1ccc(-c2nc3cnccn3c2Nc2ccc3c(c2)OCO3)cc1", "Potency": "inconclusive: 32.6 µM [falling, single point]"},
      {"smiles": "Cc1nc2cc(NC(=O)N3c4ccccc4CC3C)ccc2o1", "note": "(stereo unspecified)", "Potency": "inconclusive: 32.6 µM [falling, partial curve, poor fit]"},
      {"smiles": "CCC(C)c1ccc(NC(=S)NCc2cccnc2)cc1", "note": "(stereo unspecified)", "activity change, negative = inhibition": "inactive"},
      {"smiles": "Cc1cc(=O)[nH]c(N/N=C/c2c(C)nn(-c3ccccc3)c2Cl)n1", "activity change, negative = inhibition": "inconclusive: 10.5%"},
      {"smiles": "CN(C)S(=O)(=O)c1cc(C(=O)Nc2ccccc2C(=O)NC2CC2)ccc1Cl", "activity change, negative = inhibition": "inconclusive: 6.46%"},
      {"smiles": "CC1(C)CC(O)C(C)(C)N1O", "note": "(stereo unspecified)", "activity change, negative = inhibition": "inactive"},
      {"smiles": "Cc1ccnc(NC(=O)c2sc3cc(Cl)ccc3c2Cl)c1", "activity change, negative = inhibition": "inconclusive: -16.3%"},
      {"smiles": "COC(=O)CCn1nc(-c2ccc(C)cc2)c2ccccc2c1=O", "activity change, negative = inhibition": "inactive"},
      {"smiles": "COc1ccc(OCCOc2ccccc2[N+](=O)[O-])cc1", "activity change, negative = inhibition": "inconclusive: 12.1%"},
      {"smiles": "Cc1ccc(C(=O)Nc2nc3c(s2)CCCC3)o1", "Potency": "inconclusive: 23.1 µM [falling, single point]"},
      {"smiles": "CCCCn1c(N)c(N(CCOC)C(=O)CCNC(=O)c2ccc(Br)cc2)c(=O)[nH]c1=O", "activity change, negative = inhibition": "inconclusive: 9.91%"},
      {"smiles": "COc1ccc(-c2[nH]ncc2/C=N\\NC(=O)c2cccs2)cc1OC", "Potency": "inconclusive: 15.8 µM [falling, partial curve]"},
      {"smiles": "CCCCCOC(=O)c1[nH]c2c(c1C)C(=O)CC(c1ccco1)C2", "note": "(stereo unspecified)", "Potency": "inconclusive: 0.517 µM [falling, full curve]"},
      {"smiles": "Cc1ccc2cc(CN(CCN(C)C)C(=S)Nc3ccccc3)c(=O)[nH]c2c1C", "activity change, negative = inhibition": "inactive"},
      {"smiles": "CCN(CC)C(=O)[C@H]1C[C@H](CC(=O)NCC23CC4CC(CC(C4)C2)C3)C(=O)N2CCc3c([nH]c4ccc(Cl)cc34)[C@]12C", "activity change, negative = inhibition": "inactive"},
      {"smiles": "COc1ccccc1OCc1ccc(C(=O)Nc2cc(OC)c(OC)c(OC)c2)o1", "activity change, negative = inhibition": "inconclusive: -8.5%"},
      {"smiles": "CC(C)C(c1nnnn1Cc1ccc(F)cc1)N1CCN(C(=O)c2ccco2)CC1", "note": "(stereo unspecified)", "activity change, negative = inhibition": "inactive"},
      {"smiles": "CC(C)C(NC(=O)c1ccc(Br)cc1)C(=O)NC1=NCCS1", "note": "(stereo unspecified)", "activity change, negative = inhibition": "inactive"},
      {"smiles": "COc1ccc(C(=O)O)cc1NCc1ccc(C)s1", "activity change, negative = inhibition": "inactive"},
      {"smiles": "COC(=O)c1cccc(NC(=S)NCc2ccc(Cl)cc2)c1", "activity change, negative = inhibition": "inconclusive: -10.2%"},
      {"smiles": "Nc1nonc1-n1nnc(C(=O)N/N=C/c2cccnc2)c1CSc1ccc(Cl)cc1", "activity change, negative = inhibition": "inconclusive: 0.106%"},
      {"smiles": "CCOC(=O)/C(C#N)=C/Nc1cc(F)ccc1C", "activity change, negative = inhibition": "inactive"},
      {"smiles": "C/C(=N\\Nc1ccc([N+](=O)[O-])cc1)c1ccc(O)cc1", "activity change, negative = inhibition": "inconclusive: 0.368%"},
      {"smiles": "CCN(CC)Cc1c(O)ccc2c1O/C(=C\\C=C\\c1ccccc1)C2=O", "activity change, negative = inhibition": "inactive"},
      {"smiles": "COc1ccc(C2CC(c3ccc(OC)cc3OC(C)=O)=NN2C(=O)c2ccccc2)cc1", "note": "(stereo unspecified)", "activity change, negative = inhibition": "inconclusive: 1.08%"},
      {"smiles": "O=C(Nc1cccc(O)c1)c1ccc(NC(=O)c2cccs2)cc1", "activity change, negative = inhibition": "inconclusive: 5.53%"},
      {"smiles": "O=C1COC(c2ccccc2)C2CCCCN12", "note": "(stereo unspecified)", "activity change, negative = inhibition": "inactive"},
      {"smiles": "Cc1c(NC(=S)NC(=O)C(C)(C)C)cccc1[N+](=O)[O-]", "activity change, negative = inhibition": "inactive"},
      {"smiles": "CCN(c1ccccc1)S(=O)(=O)c1ccc(C(=O)Nc2cccc(NC(C)=O)c2)cc1", "activity change, negative = inhibition": "inactive"},
      {"smiles": "CCOC(=O)c1c(CN(C)C)n(-c2ccccc2)c2cc(Br)c(O)cc12", "activity change, negative = inhibition": "inconclusive: 11.4%"},
      {"smiles": "Cc1cc(C)c2c3c(sc2n1)C(c1cccc(F)c1)C(C#N)=C(N)O3", "note": "(stereo unspecified)", "Potency": "inconclusive: 0.206 µM [falling, full curve, poor fit]"},
      {"smiles": "Cc1ccc(NC(=O)c2ccccc2OCc2ccc([N+](=O)[O-])cc2)nc1", "activity change, negative = inhibition": "inconclusive: 8.05%"},
      {"smiles": "COCc1nc2ccccc2n1Cc1ccccc1", "activity change, negative = inhibition": "inactive"},
      {"smiles": "CCOc1cc(CNc2cccc3[nH]c(C)nc23)ccc1OC", "activity change, negative = inhibition": "inconclusive: -9.48%"},
      {"smiles": "CC1CCN(CCCNC(=O)c2ccc3c(=O)n(CCc4ccccc4)c(=O)[nH]c3c2)CC1", "activity change, negative = inhibition": "inactive"},
      {"smiles": "O=C(C1CCN(S(=O)(=O)c2cccc3nsnc23)CC1)N1CC=C(c2ccccc2)CC1", "activity change, negative = inhibition": "inactive"},
      {"smiles": "Cc1nc2ccc(NC(=O)CS(=O)(=O)c3ccccc3)cc2s1", "activity change, negative = inhibition": "inconclusive: 4.21%"},
      {"smiles": "O=C(O)CCC(=O)c1c[nH]c2ccccc12", "activity change, negative = inhibition": "inconclusive: 3.84%"},
      {"smiles": "CC(Sc1cccc[n+]1[O-])C(=O)Nc1cc(Cl)c(Cl)cc1Cl", "note": "(stereo unspecified)", "activity change, negative = inhibition": "inconclusive: 2.09%"},
      {"smiles": "CC(=O)Nc1ccc(S(=O)(=O)NCCC(=O)Nc2ccc(C)cn2)cc1", "activity change, negative = inhibition": "inactive"}
    ]}
  ]
}
